Data reported in US20090221474A1.
These are yes or no findings as the source states them, for the method shown. In cells and extracts the contact can be indirect. Some binding calls cover weakened binding; strength is not graded here.

Protein sequences, listed by entry. Tags and fused reporters are not part of them. Residues count along the entry.
UniProt Q32PJ8: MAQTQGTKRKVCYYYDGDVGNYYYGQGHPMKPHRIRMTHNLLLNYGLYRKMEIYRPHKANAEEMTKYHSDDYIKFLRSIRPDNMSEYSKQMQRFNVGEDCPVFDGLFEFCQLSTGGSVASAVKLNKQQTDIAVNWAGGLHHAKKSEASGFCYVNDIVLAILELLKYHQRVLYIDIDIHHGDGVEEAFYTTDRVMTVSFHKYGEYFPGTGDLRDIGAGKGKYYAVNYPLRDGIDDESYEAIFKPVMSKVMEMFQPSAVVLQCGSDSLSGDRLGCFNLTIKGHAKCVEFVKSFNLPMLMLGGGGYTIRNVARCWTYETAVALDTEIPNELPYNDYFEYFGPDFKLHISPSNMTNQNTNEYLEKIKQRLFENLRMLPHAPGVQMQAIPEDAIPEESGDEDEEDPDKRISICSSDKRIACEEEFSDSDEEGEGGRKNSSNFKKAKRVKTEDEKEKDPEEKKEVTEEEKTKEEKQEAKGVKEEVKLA
UniProt Q3MHL3, residues 2-425: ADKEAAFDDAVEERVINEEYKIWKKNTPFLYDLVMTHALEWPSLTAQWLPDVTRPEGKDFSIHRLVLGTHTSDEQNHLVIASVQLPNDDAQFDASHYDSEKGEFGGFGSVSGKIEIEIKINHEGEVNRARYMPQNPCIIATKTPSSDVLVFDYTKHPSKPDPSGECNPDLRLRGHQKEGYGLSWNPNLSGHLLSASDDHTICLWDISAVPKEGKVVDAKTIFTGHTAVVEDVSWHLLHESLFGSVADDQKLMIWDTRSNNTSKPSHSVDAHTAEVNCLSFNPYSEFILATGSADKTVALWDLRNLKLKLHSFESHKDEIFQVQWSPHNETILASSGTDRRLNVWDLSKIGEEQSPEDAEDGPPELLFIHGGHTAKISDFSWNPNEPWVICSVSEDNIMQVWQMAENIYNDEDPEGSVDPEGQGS

Molecular target: bovine HD1 (bovine thymus trapoxin binding proteins p46-p49) (bovine) (UniProt Q32PJ8)
Test: co-purification on the K-trap affinity matrix

binding: binds
Substance: bovine RbAp48 (bovine thymus protein of ~50 kD) (from UniProt Q3MHL3 2-425)
